The whole screen tested about 400,000 compounds, of which about 5,500 (1.4%) were called active. Inconclusive means that the source gave no clear call. Such entries were picked first, then a sample of the others. Calls come from the whole dose curve; as a rule, active = well fitted cell-killing curve with a large enough effect; inconclusive = small, poorly fitted or top-dose-only effect, or effect the other way; inactive = flat fitted curve, though single readings scatter. Potencies beside an inconclusive call are fits to weak or partial responses and may not hold up.
Assay: qHTS assay for MDR1-selective chemotherapeutics: Primary screen using the parental adenocarcinoma cell KB-3-1; note: nearly all actives have a fitted effect of over 60% in size
Settings: KB-3-1 viability, CellTiter-Glo ATP luminescence, 72 h; activity change, negative = cytotoxic: at 46.1 µM (top of the series)
Method in brief: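 KB-3-1 parental drug-naive adenocarcinoma cells in DMEM/10% FBS, incubated 72 h at 37 C with pin-transferred compounds across a concentration series. Viability by CellTiter-Glo luminescence; concentration-response curves fitted after normalization.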
% is set by controls: 0 for no effect and ±100 for the full control effect; potency is the fitted concentration of half-maximal effect.

Structure (SMILES) | Potency | activity change, negative = cytotoxic
CCOC(=O)COc1ccc2c(C#N)c3ccccn3c2c1 | inactive | –
CC1CCN(C2=C(NS(=O)(=O)c3ccc(Br)cc3)C(=O)c3ccccc3C2=O)CC1 | inconclusive: 23.1 µM [cytotoxic, single point] | –
CCOC(=O)NNc1ccc2nonc2c1[N+](=O)[O-] | inconclusive: 29.1 µM [cytotoxic, single point] | –
O=C(c1ccc(CN2CCOCC2)cc1)N1CCN(c2ccccc2)CC1 | inactive | –
O=Cc1ccc2[nH]ccc2c1 | inactive | –
Cc1nn(C)c(C(=O)Nc2ccn(C34CC5CC(CC(C5)C3)C4)n2)c1[N+](=O)[O-] | inactive | –
CN(CCOc1ccc(Br)cc1)CC(O)COc1ccc(C#N)cc1 (configuration not stated) | inconclusive: 32.6 µM [cytotoxic, single point] | –
CCc1cc(/C(Cc2csc(C)n2)=N/O)c(O)cc1O | inconclusive: 10.3 µM [cytotoxic, partial curve, poor fit] | –
COc1ccc(CN2CCNC(=O)C2CC(=O)NC2CCCCCCC2)cc1C (configuration not stated) | inactive | –
CC(=O)Nc1cccc(Oc2nc(NC(C)C)nc3cc(-c4ccccc4)sc23)c1 | inconclusive: 29.1 µM [cytotoxic, partial curve, poor fit] | –
Cc1nc2ccccn2c1C(=O)NCc1ccc2c(c1)OCO2 | inactive | –
Cc1ccc(N2C(=O)N(CC(=O)Nc3ccc(C)cc3C)C(=O)C2C)cc1 (configuration not stated) | inactive | –
Cc1ccc(S(=O)(=O)N(C)C[C@@H]2OCc3cnnn3CCCC(=O)N([C@H](C)CO)C[C@H]2C)cc1 | inactive | –
COc1ccccc1NCC(=O)NNCC(=O)Nc1ccc(F)c(Cl)c1 | inconclusive: 29.1 µM [rising, single point] | –
O=C(O)c1ccc(-n2nc(C(F)(F)F)cc2-c2cccs2)cc1 | – | inconclusive: 1.16%
O=S(=O)(NCC1CCCO1)c1ccc(Cl)c2ccccc12 (configuration not stated) | inactive | –
Cc1ccccc1-c1noc(C(C)NC(=O)c2ccco2)n1 (configuration not stated) | inconclusive: 20.6 µM [rising, partial curve] | –
CCCCC[C@@H](C)N1C[C@@H](COCc2ccccc2)Oc2cc(N3CCC[C@@H]3CO)ccc2S1(=O)=O | inconclusive: 29.1 µM [cytotoxic, single point] | –
Cc1ccc(Oc2ccc(NC(=O)c3ccco3)cc2)cc1 | inconclusive: 20.6 µM [cytotoxic, partial curve, poor fit] | –
CCOC(=O)c1cnc(-n2nc(C)cc2C)nc1NNc1nc(-c2ccccc2)cc(-c2ccccc2)n1 | active: 25.9 µM | –
CC(C)c1nc2ccc(C(=O)NCCCN3CCN(c4ccccc4F)CC3)cc2o1 | inactive | –
O=[N+]([O-])c1ccc(S(=O)(=O)c2cccc(C(F)(F)F)c2)nc1 | inconclusive: 29.1 µM [cytotoxic, single point] | –
CC(=O)O[C@]1(C(C)=O)CC[C@H]2[C@@H]3C=CC4=CC(=O)C=C[C@]4(C)[C@H]3CC[C@@]21C | inconclusive: 2.91 µM [cytotoxic, partial curve, poor fit] | –
Oc1c(Br)cccc1/C=N/Nc1c(F)c(F)c(F)c(F)c1F | inconclusive: 20.6 µM [cytotoxic, single point] | –

Three compounds already listed, arranged by number of heavy atoms, rising.
Structure (SMILES) | Potency | activity change, negative = cytotoxic
Cc1ccccc1-c1noc(C(C)NC(=O)c2ccco2)n1 (configuration not stated) | inconclusive: 20.6 µM [rising, partial curve] | –
O=C(c1ccc(CN2CCOCC2)cc1)N1CCN(c2ccccc2)CC1 | inactive | –
CC1CCN(C2=C(NS(=O)(=O)c3ccc(Br)cc3)C(=O)c3ccccc3C2=O)CC1 | inconclusive: 23.1 µM [cytotoxic, single point] | –

Carrying on:

Structure (SMILES) | Potency | activity change, negative = cytotoxic
N#Cc1ccc(CN2C(=O)c3ccccc3Sc3ccc(C(=O)OCc4ccco4)cc32)cc1 | inactive | –
CCOc1ccc2nc(NC(=O)CS(=O)(=O)c3ccc(Cl)cc3)sc2c1 | inconclusive: 25.9 µM [cytotoxic, single point] | –
Cc1[nH]c2ccccc2c1C(=O)CN(C)c1ccccc1 | – | inconclusive: -6.71%
O=C(N/N=C\c1cn(-c2ccccc2)nc1-c1ccccc1)c1ccc(Br)o1 | inconclusive: 29.1 µM [cytotoxic, single point] | –
Cn1ncc([N+](=O)[O-])c1C(=O)Nc1ccccc1C#N | inactive | –
Cc1ccc(C(C)C)c(OCC(=O)Nc2ccc(S(=O)(=O)Nc3onc(C)c3C)cc2)c1 | inactive | –
CCNC(=O)Cn1c(-c2cccs2)cc2ccccc21 | inactive | –
CC1Nc2ncnc(N3CCOCC3)c2N(Cc2ccc(Cl)cc2)C1=O (configuration not stated) | inconclusive: 29.1 µM [cytotoxic, single point] | –
Oc1ccc(Nc2ccnc3cc(Cl)ccc23)cc1 | inactive | –
Cc1ccn(CC(=O)N/N=C/c2cc([N+](=O)[O-])ccc2O)n1 | inactive | –
Clc1ccc(-c2c[n+](Cc3cccc(Cl)c3)c3n2CCC3)cc1 | active: 6.51 µM | –
CSC1=N/C(=C\c2ccc(C)cc2)C(=O)S1 | – | inconclusive: 35%
Cc1ccc(COc2ccc(CNCCCN3CCCCCC3=O)cc2)cc1 | inconclusive: 18.4 µM [cytotoxic, single point] | –
CCn1ccc2cc(S(=O)(=O)N3CCCN(C(=O)NCC(C)C)CC3)ccc21 | inconclusive: 25.9 µM [cytotoxic, single point] | –
O=C(Cc1ccc([N+](=O)[O-])cc1)N1CCN(c2ccc([N+](=O)[O-])cc2)CC1 | inconclusive: 18.4 µM [cytotoxic, single point] | –
O=C(COc1ccc2cc(Br)ccc2c1Br)N1CCOCC1 | – | inconclusive: -31.3% [cytotoxic]
O=C(Nc1ccc(N2CCN(C(=O)c3ccco3)CC2)c(Cl)c1)c1cc2ccccc2o1 | inconclusive: 25.9 µM [cytotoxic, single point] | –
CC(=O)c1c(C)[nH]c(C(=O)OCC(=O)Nc2ccc3c(c2)OCCO3)c1C | inconclusive: 29.1 µM [cytotoxic, single point] | –
COCCN=c1scc(-c2ccc3c(c2)NC(=O)CO3)n1/N=C(\C)c1ccc(O)cc1 | inconclusive: 25.9 µM [cytotoxic, partial curve] | –
Cc1ccc(C(=O)NCC(=O)OCC(=O)c2cccc3ccccc23)cc1 | inactive | –
OCC1(Cc2ccccc2)CCCN(Cc2ccc(-c3ccco3)cc2)C1 (configuration not stated) | inactive | –
Cn1nc(C(=O)Nc2cccc(S(=O)(=O)N3CCCCC3)c2)c2ccccc2c1=O | inconclusive: 29.1 µM [cytotoxic, single point] | –
COc1ccc(/C=C/C(=O)C2(O)CCCCC2)cc1 | inconclusive: 29.1 µM [cytotoxic, single point] | –
